Reference: the supplement of paper PMC6411743
± gives the standard deviation of the averaged measurements. The entries are a selection whose mix differs from that of the whole data set.

Chains of the proteins cited; added tags and fusions are not shown. Lines headed by an entry give the natural chain unless they say otherwise; changes in a name come on top.
UniProt Q15424: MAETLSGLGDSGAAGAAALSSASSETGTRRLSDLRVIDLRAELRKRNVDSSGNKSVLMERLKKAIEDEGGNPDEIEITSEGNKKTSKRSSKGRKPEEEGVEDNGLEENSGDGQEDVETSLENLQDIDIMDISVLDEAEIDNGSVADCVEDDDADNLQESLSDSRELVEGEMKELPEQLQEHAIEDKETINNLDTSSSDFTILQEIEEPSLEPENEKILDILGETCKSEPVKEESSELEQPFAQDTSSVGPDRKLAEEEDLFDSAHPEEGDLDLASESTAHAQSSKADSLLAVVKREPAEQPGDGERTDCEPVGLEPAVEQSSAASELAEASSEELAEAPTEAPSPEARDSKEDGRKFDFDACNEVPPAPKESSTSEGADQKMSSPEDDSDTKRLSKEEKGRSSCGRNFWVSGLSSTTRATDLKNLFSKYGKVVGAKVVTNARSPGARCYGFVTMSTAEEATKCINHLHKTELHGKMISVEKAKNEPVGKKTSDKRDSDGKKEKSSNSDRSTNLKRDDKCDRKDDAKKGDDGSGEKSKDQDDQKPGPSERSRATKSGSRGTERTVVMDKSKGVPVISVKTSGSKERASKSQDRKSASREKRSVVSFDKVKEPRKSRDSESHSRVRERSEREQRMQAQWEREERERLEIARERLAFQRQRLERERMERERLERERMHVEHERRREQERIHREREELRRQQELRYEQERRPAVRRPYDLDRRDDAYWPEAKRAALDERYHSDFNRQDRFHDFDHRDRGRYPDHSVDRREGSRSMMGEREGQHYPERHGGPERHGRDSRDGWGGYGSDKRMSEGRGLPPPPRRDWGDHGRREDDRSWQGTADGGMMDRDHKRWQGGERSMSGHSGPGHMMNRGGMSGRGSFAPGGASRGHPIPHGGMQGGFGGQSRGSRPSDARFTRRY
UniProt Q15392: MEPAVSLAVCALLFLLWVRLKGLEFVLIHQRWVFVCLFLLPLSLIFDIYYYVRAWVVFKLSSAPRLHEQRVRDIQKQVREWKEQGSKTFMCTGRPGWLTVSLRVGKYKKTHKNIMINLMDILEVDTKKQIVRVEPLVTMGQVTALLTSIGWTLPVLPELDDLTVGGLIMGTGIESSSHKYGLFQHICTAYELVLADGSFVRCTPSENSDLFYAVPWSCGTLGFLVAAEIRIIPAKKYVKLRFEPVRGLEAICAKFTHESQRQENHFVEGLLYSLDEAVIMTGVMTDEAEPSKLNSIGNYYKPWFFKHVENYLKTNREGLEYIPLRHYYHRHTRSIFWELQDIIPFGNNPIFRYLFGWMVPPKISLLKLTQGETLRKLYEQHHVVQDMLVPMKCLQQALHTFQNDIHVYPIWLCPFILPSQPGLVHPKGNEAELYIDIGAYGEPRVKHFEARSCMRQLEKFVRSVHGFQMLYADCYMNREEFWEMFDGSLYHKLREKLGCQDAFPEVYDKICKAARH
UniProt Q14847: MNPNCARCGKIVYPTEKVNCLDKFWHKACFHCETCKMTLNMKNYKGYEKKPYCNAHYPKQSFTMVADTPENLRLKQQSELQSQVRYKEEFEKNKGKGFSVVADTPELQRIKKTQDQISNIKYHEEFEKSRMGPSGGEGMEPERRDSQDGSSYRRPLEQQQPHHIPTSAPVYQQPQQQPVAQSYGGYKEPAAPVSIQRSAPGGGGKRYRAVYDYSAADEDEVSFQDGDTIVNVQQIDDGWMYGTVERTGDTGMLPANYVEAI
UniProt Q15628: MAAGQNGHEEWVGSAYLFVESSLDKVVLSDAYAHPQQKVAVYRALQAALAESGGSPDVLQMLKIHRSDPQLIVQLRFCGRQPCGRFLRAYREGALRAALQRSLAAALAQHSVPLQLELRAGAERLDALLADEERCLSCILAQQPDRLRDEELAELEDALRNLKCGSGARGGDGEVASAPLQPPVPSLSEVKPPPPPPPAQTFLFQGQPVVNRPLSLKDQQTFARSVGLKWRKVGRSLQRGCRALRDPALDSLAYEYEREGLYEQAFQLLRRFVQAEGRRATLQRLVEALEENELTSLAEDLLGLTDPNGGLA
UniProt Q15583: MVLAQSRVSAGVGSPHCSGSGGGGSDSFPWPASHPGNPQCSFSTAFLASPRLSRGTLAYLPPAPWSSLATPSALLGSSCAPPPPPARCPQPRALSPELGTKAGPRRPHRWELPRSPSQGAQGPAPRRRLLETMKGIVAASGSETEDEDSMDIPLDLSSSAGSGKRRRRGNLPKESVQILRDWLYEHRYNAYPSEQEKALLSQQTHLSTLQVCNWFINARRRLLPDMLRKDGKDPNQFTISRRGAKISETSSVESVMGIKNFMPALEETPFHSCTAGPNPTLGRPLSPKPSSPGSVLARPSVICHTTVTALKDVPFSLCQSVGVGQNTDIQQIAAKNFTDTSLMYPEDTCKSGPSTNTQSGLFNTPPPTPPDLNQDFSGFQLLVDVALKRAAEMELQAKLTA
UniProt Q3KRA6: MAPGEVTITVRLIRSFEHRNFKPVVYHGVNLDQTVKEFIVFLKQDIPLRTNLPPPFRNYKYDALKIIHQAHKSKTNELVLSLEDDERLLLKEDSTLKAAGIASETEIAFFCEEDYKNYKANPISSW
UniProt Q4ADV7: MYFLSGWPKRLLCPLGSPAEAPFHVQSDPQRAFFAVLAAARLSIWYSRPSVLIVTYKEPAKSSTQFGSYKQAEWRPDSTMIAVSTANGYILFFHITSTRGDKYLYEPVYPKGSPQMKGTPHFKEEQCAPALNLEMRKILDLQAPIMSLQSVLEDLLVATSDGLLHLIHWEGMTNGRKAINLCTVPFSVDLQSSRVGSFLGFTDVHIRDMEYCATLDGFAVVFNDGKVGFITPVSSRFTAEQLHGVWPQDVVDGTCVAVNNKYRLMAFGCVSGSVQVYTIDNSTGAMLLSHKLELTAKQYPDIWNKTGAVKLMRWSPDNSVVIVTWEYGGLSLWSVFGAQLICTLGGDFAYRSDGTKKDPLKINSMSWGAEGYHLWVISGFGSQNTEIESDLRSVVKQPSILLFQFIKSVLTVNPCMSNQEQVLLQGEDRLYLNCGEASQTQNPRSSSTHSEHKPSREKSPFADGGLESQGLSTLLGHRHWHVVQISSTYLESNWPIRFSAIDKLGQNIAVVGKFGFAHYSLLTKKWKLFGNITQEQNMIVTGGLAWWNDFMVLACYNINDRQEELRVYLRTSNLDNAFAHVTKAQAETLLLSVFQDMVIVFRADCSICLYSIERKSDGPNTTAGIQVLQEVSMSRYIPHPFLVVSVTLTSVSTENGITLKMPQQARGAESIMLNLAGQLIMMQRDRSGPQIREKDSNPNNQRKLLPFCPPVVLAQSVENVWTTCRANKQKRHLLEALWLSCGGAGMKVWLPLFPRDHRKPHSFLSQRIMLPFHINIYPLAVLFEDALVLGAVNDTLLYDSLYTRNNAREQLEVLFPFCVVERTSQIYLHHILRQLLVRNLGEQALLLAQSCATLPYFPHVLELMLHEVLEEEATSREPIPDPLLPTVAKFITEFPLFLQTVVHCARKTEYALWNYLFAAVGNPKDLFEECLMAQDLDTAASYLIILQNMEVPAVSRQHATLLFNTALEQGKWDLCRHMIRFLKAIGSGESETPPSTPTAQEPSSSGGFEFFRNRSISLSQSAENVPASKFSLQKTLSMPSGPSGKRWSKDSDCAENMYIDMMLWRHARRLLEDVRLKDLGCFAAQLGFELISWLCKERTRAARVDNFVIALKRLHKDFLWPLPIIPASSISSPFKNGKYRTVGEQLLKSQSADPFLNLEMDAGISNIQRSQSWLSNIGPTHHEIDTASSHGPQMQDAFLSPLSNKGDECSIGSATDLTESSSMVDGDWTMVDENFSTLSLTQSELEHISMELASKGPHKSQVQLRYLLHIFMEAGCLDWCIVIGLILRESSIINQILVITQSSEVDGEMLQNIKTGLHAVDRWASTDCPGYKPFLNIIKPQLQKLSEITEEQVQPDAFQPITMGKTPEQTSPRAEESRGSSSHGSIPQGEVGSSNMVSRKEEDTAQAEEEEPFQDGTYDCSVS
UniProt Q15386: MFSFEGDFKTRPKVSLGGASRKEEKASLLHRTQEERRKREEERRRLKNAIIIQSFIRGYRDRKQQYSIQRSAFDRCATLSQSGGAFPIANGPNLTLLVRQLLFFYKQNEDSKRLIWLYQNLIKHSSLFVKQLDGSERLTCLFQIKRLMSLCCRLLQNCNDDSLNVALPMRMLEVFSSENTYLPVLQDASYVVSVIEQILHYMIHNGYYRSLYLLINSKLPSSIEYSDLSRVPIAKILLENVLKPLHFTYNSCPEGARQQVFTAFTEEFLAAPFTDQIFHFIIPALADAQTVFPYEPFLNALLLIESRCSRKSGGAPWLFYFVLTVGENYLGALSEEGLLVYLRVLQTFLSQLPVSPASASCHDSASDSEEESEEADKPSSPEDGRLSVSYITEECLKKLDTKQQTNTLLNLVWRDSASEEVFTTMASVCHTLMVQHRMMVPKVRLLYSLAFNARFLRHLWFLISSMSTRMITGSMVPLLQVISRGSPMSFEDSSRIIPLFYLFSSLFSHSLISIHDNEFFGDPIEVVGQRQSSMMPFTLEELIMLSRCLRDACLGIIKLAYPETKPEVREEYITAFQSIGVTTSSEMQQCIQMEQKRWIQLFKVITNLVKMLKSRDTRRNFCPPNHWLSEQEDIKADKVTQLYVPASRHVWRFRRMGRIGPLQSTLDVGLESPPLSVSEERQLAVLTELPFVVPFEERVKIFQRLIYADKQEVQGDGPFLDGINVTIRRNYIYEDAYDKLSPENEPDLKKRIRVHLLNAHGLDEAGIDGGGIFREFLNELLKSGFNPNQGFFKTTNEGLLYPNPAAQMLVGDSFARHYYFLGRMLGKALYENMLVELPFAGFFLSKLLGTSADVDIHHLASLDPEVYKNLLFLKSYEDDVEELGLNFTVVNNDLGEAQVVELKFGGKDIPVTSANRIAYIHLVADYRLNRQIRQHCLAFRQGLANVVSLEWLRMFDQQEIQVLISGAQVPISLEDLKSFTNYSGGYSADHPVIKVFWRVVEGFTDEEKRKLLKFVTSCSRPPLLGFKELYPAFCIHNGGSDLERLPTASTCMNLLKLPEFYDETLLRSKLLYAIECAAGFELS
UniProt Q14554: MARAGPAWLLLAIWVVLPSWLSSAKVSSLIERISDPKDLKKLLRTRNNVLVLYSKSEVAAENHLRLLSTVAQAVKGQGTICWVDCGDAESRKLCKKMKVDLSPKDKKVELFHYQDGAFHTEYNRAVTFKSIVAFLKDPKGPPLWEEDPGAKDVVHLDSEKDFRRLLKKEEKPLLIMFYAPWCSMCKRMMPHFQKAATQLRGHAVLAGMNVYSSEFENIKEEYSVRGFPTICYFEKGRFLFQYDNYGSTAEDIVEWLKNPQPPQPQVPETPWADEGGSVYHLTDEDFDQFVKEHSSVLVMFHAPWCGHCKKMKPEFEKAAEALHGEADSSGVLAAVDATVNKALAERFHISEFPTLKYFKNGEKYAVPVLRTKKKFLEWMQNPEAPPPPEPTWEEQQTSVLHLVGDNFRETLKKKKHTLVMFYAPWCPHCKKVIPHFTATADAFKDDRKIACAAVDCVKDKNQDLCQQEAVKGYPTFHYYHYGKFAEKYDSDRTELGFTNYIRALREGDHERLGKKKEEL
UniProt Q15506: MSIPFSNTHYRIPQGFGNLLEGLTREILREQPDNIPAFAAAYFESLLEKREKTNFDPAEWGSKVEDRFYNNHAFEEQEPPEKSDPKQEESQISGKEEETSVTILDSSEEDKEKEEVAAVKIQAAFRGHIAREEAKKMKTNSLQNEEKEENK
UniProt Q15527: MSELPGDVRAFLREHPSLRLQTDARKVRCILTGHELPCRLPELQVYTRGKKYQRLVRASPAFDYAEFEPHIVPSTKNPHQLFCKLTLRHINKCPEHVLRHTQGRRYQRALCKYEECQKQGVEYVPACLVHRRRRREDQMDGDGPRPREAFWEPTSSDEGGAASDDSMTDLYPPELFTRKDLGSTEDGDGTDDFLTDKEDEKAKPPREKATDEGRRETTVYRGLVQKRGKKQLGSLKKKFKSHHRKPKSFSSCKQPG
UniProt Q14247: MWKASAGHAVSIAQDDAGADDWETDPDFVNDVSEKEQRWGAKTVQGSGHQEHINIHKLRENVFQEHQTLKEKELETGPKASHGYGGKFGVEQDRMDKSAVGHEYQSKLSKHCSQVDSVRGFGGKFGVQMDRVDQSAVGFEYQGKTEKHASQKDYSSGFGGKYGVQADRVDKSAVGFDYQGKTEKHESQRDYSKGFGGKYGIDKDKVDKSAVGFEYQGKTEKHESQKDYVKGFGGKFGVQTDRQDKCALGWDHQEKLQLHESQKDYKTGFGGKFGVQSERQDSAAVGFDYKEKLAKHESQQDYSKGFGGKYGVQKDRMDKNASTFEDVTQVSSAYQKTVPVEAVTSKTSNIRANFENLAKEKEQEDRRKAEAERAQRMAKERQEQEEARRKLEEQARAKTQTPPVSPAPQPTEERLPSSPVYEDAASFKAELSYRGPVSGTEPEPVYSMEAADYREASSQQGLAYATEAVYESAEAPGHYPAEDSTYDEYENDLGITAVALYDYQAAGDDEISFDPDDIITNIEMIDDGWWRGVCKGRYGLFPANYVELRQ

Compound: Nc1ncnc2c1ncn2[C@@H]1O[C@H](COP(=O)(O)OP(=O)(O)OP(=O)(O)O)[C@@H](O)[C@H]1O [adenosine triphosphate]
Experiment: NP40-soluble protein abundance relative to vehicle (solubility fold change) (ratio); higher = more soluble protein in presence of ATP
Outline: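 Jurkat crude lysate prepared with a Dounce homogeniser was treated at eight concentrations spanning 0.1 to 10 mM, 10 min at room temperature then 3 min at 37 °C. Solubilisation with 0.8% NP40 and benzonase and ultracentrifugation preceded TMT labelling of the supernatant for LC-MS/MS. Fold change against the detergent-processed vehicle was determined per replicate from vsn-normalised intensities, across three independent experiments.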

Target	NP40-soluble protein abundance (concentration: 1mM)	NP40-soluble protein abundance (concentration: 2mM)	NP40-soluble protein abundance (concentration: 4mM)	NP40-soluble protein abundance (concentration: 6mM)	NP40-soluble protein abundance (concentration: 8mM)	NP40-soluble protein abundance (concentration: 10mM)
ESPL1 (UniProt Q14674)	1.03 ± 0.092	0.884 ± 0.085	0.906 ± 0.15	0.973 ± 0.11	0.819 ± 0.14	0.924 ± 0.14
UniProt Q16206 and related entries	1.06 ± 0.069	1.002 ± 0.01	1.07 ± 0.036	1.02 ± 0.051	0.963 ± 0.042	0.928 ± 0.084
UniProt Q16222 and related entries	0.976 ± 0.053	0.962 ± 0.062	0.942 ± 0.042	0.905 ± 0.086	0.959 ± 0.032	0.95 ± 0.058
UniProt Q15424 and related entries	0.989 ± 0.082	0.979 ± 0.069	1.03 ± 0.098	1.23 ± 0.12	1.21 ± 0.096	1.32 ± 0.085
UniProt Q14257 and related entries	0.979 ± 0.043	0.961 ± 0.018	0.935 ± 0.023	0.974 ± 0.064	0.959 ± 0.02	0.921 ± 0.014
UniProt Q2PPJ7 and related entries	1.39 ± 0.58	1.28 ± 0.51	1.18 ± 0.23	1.41 ± 0.76	1.03 ± 0.064	1.07 ± 0.15
MAN2A1 (UniProt Q16706)	1.04 ± 0.16	0.926 ± 0.072	0.939 ± 0.034	0.888 ± 0.066	0.918 ± 0.076	0.92 ± 0.043
MVP (UniProt Q14764)	1.06 ± 0.077	1.01 ± 0.13	1.01 ± 0.16	0.995 ± 0.21	0.986 ± 0.18	1.01 ± 0.17
WRN (UniProt Q14191)	1.24 ± 0.023	1.21 ± 0.068	1.28 ± 0.061	1.26 ± 0.11	1.34 ± 0.16	1.29 ± 0.038
Q15392 and related entries (UniProt Q3LIE7+Q15392)	0.974 ± 0.073	0.999 ± 0.11	1.01 ± 0.046	0.84668 ± 0.00015	1.06 ± 0.015	1.03 ± 0.044
LASP1 (UniProt Q14847)	0.937 ± 0.023	0.9319 ± 0.0024	0.865 ± 0.0094	0.972 ± 0.018	0.889 ± 0.052	0.885 ± 0.024
TRADD (UniProt Q15628)	1.02 ± 0.044	0.96 ± 0.029	0.95 ± 0.011	0.939 ± 0.013	0.926 ± 0.072	0.911 ± 0.048
UniProt Q15544 and related entries	1.09 ± 0.025	1.17 ± 0.058	1.15 ± 0.042	1.13 ± 0.2	1.18 ± 0.15	1.14 ± 0.028
UniProt Q15583 and related entries	0.924 ± 0.024	0.973 ± 0.012	0.93 ± 0.012	0.936 ± 0.012	0.819 ± 0.016	0.938 ± 0.015
UniProt Q14814-4	0.916 ± 0.077	0.954 ± 0.024	0.981 ± 0.034	0.939 ± 0.052	0.904 ± 0.022	0.913 ± 0.049
DGUOK (UniProt Q16854)	1.02 ± 0.11	1.01 ± 0.074	1.01 ± 0.087	0.963 ± 0.14	1.02 ± 0.084	0.997 ± 0.084
UniProt Q3MHD2 and related entries	1.01 ± 0.046	1.025 ± 0.0053	0.996 ± 0.052	1.05 ± 0.028	1.06 ± 0.041	1.05 ± 0.034
UniProt Q15669	1.03 ± 0.18	1.04 ± 0.037	1.04 ± 0.064	1.02 ± 0.058	1.107 ± 0.0062	1.16 ± 0.093
C2orf76 (UniProt Q3KRA6)	0.922 ± 0.069	0.93 ± 0.028	0.947 ± 0.035	0.906 ± 0.054	0.945 ± 0.085	0.929 ± 0.059
UniProt Q32MZ4 and related entries	0.958 ± 0.064	0.939 ± 0.031	0.917 ± 0.015	0.984 ± 0.063	0.915 ± 0.018	0.899 ± 0.015
COX19 (UniProt Q49B96)	0.971 ± 0.097	1.02 ± 0.1	0.969 ± 0.11	1.06 ± 0.13	0.869 ± 0.026	0.906 ± 0.071
RALBP1 (UniProt Q15311)	1.05 ± 0.026	1.07 ± 0.026	1.1 ± 0.044	1.13 ± 0.023	1.098 ± 0.0087	1.13 ± 0.02
EIF2B1 (UniProt Q14232)	0.937 ± 0.056	0.965 ± 0.043	0.9264 ± 0.006	0.871 ± 0.097	0.912 ± 0.024	0.951 ± 0.032
UniProt Q4ADV7 and related entries	0.979 ± 0.057	1.01 ± 0.12	0.937 ± 0.19	0.979 ± 0.13	0.966 ± 0.084	1.02 ± 0.19
TRIM25 (UniProt Q14258)	1 ± 0.013	0.996 ± 0.028	0.965 ± 0.014	1.01 ± 0.04	0.975 ± 0.045	0.984 ± 0.024

2 entries picked at random from the list so far:
Target	NP40-soluble protein abundance (concentration: 1mM)	NP40-soluble protein abundance (concentration: 2mM)	NP40-soluble protein abundance (concentration: 4mM)	NP40-soluble protein abundance (concentration: 6mM)	NP40-soluble protein abundance (concentration: 8mM)	NP40-soluble protein abundance (concentration: 10mM)
WRN (UniProt Q14191)	1.24 ± 0.023	1.21 ± 0.068	1.28 ± 0.061	1.26 ± 0.11	1.34 ± 0.16	1.29 ± 0.038
MAN2A1 (UniProt Q16706)	1.04 ± 0.16	0.926 ± 0.072	0.939 ± 0.034	0.888 ± 0.066	0.918 ± 0.076	0.92 ± 0.043

More results

Target	NP40-soluble protein abundance (concentration: 1mM)	NP40-soluble protein abundance (concentration: 2mM)	NP40-soluble protein abundance (concentration: 4mM)	NP40-soluble protein abundance (concentration: 6mM)	NP40-soluble protein abundance (concentration: 8mM)	NP40-soluble protein abundance (concentration: 10mM)
UniProt Q14157-4|Q14157-5|Q14157	0.991 ± 0.041	1.02 ± 0.019	1.01 ± 0.034	1.09 ± 0.032	1.02 ± 0.015	1.04 ± 0.014
UniProt Q15120 and related entries	1.4 ± 0.15	1.39 ± 0.2	1.45 ± 0.19	1.38 ± 0.16	1.53 ± 0.23	1.47 ± 0.23
UniProt Q16352	0.9978 ± 0.0016	1.03 ± 0.011	1.136 ± 0.0049	1.09 ± 0.096	0.982 ± 0.086	0.999 ± 0.032
UniProt Q15046 and related entries	1.03 ± 0.042	0.942 ± 0.028	0.9131 ± 0.005	0.941 ± 0.085	0.982 ± 0.05	0.92 ± 0.052
UBE3C (UniProt Q15386)	1.03 ± 0.18	0.968 ± 0.075	0.984 ± 0.071	0.883 ± 0.13	0.966 ± 0.037	0.987 ± 0.017
UniProt Q14554 and related entries	1.05 ± 0.034	1.03 ± 0.017	1.06 ± 0.054	1.06 ± 0.032	1.1 ± 0.02	1.09 ± 0.019
PPP1R7 (UniProt Q15435)	0.95 ± 0.04	0.935 ± 0.031	0.903 ± 0.026	0.911 ± 0.078	0.91 ± 0.035	0.89 ± 0.036
NDUFA9 (UniProt Q16795)	1.06 ± 0.15	1 ± 0.093	0.991 ± 0.075	0.934 ± 0.082	1.04 ± 0.059	0.99 ± 0.078
SPA17 (UniProt Q15506)	0.919 ± 0.15	0.925 ± 0.04	0.987 ± 0.088	0.92 ± 0.14	0.888 ± 0.06	0.916 ± 0.069
UniProt Q14669-2|Q14669-3	1.22 ± 0.013	1.28 ± 0.015	1.37 ± 0.024	1.39 ± 0.025	1.46 ± 0.015	1.46 ± 0.044
PDS5A (UniProt Q29RF7)	0.94 ± 0.025	0.952 ± 0.0065	0.9295 ± 0.0078	0.95 ± 0.026	0.935 ± 0.013	0.945 ± 0.0096
UniProt Q15811 and related entries	0.956 ± 0.052	0.961 ± 0.019	0.9578 ± 0.0036	0.98 ± 0.0019	0.956 ± 0.018	0.972 ± 0.04
TSC22D1 (UniProt Q15714)	1.02 ± 0.26	0.971 ± 0.21	1.12 ± 0.39	1.05 ± 0.31	1.04 ± 0.3	1.1 ± 0.31
UniProt Q14687 and related entries	0.957 ± 0.05	0.941 ± 0.056	0.937 ± 0.041	0.974 ± 0.12	0.932 ± 0.046	0.944 ± 0.05
UniProt Q3L8U1 and related entries	1.03 ± 0.08	1.09 ± 0.12	1.1 ± 0.053	1 ± 0.057	0.989 ± 0.097	1.03 ± 0.14
UniProt Q16563-2|Q16563	0.93 ± 0.028	0.995 ± 0.1	0.966 ± 0.025	0.894 ± 0.064	0.913 ± 0.074	0.89 ± 0.083
TTLL12 (UniProt Q14166)	1.07 ± 0.056	1.04 ± 0.061	1.03 ± 0.055	0.981 ± 0.098	1.05 ± 0.067	1.01 ± 0.059
GAMT (UniProt Q14353)	1.03 ± 0.034	1.03 ± 0.053	1.01 ± 0.087	0.968 ± 0.041	0.997 ± 0.041	1.03 ± 0.014
UniProt Q15390 and related entries	1.04 ± 0.065	1.01 ± 0.051	1.02 ± 0.062	1.07 ± 0.041	1.05 ± 0.062	1.02 ± 0.096
SURF2 (UniProt Q15527)	0.93 ± 0.1	0.972 ± 0.089	0.974 ± 0.14	1.05 ± 0.087	1.03 ± 0.17	0.999 ± 0.19
UniProt Q14247 and related entries	1.01 ± 0.039	1.04 ± 0.032	1.066 ± 0.0018	1.14 ± 0.041	1.05 ± 0.044	1.06 ± 0.064
E2F4 (UniProt Q16254)	0.955 ± 0.014	0.991 ± 0.029	1.01 ± 0.054	0.999 ± 0.025	0.941 ± 0.053	0.973 ± 0.021
UniProt Q14790-2|Q14790-4|Q14790-6|Q14790-9|Q14790-5	1.02 ± 0.1	0.998 ± 0.066	1 ± 0.058	0.971 ± 0.15	1.01 ± 0.063	1.02 ± 0.053
UniProt Q2M1P5	1.08 ± 0.3	0.945 ± 0.2	0.946 ± 0.2	0.826 ± 0.2	1 ± 0.085	0.964 ± 0.11
